For this experiment, the target named is vimentin (human (endogenous in HMEC-1)) (UniProt P08670). The experiment is described as follows: co-IP; lysates of negative control and live Tp-infected (6 hours) HMEC-1 cells; incubated overnight at 4°C with anti-vimentin antibody, anti-AKT1 antibody or control IgG; magnetic Protein A/G beads; Western blotting.

Chains of the proteins cited; added tags and fusions are not shown.
UniProt P08670: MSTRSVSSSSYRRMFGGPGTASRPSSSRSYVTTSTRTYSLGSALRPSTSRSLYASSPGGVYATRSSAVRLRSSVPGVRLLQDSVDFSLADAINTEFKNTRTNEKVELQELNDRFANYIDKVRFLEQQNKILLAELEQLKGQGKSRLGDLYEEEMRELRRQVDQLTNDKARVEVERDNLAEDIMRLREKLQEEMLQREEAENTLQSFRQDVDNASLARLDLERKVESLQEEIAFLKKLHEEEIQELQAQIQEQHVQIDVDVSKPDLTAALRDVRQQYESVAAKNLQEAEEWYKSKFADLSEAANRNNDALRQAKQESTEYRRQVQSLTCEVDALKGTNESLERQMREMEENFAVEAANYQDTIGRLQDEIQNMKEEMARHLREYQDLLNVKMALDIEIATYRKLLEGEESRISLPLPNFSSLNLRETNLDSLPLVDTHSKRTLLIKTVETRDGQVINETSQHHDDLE
UniProt P31749: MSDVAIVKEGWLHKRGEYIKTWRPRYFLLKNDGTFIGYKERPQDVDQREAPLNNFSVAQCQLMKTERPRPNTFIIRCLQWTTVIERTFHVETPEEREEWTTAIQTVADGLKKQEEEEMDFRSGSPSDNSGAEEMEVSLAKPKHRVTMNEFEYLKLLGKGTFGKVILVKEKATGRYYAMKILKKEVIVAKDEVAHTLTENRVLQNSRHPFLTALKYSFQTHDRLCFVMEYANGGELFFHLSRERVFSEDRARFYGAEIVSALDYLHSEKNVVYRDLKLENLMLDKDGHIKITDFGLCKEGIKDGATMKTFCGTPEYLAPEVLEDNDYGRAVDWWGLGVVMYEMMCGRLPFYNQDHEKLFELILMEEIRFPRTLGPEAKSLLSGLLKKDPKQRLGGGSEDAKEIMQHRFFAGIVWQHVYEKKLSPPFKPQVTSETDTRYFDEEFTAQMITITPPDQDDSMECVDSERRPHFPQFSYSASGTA

Results are given in words; binding and its absence hold for the method and conditions named. Binding seen in cells or lysates may run through a third protein. Some entries that bind do so weakly or less than the wild type.

Take “AKT1 (from UniProt P31749 1-480) (enzyme)”: the binding entry was “binds”.

Values taken from paper PMC11398692.
